Reference: patent US20060110456A1, “Method for biocidal and/or biostatic treatment and compositions therefor” (NATIONAL UNIVERSITY OF SINGAPORE, priority 2004, published 2006)
Where a name gives a salt, the structure may show the parent alone. For part of these data: At least one structure is not confirmed: it was looked up by name or label, or the drawing left a doubt. Some of these results come from one statement about several compounds together.

Legend:
Bugula neritina larvae = assay: Bioassay against bryozoan larvae; assay type: in vivo; conditions: settlement after 24 hours, hydrochloride
Procedure: Bugula neritina (Phylum Bryozoa, Class Gymnolaemata, Order Cheilostomatida) is a cosmopolitan species of bryozoan, commonly found in most marine fouling communities. The larvae are brooded in ovicells found on the stem of the colonies. When released, the larva will settle quickly on most surfaces, within a few minutes. At 24° C., the settled larvae forms the one-cell ancestrula, and after 48 hours, the lophophore has developed and extended for feeding.
Adult colonies of Bugula neritina were collected from fouling communities growing on the submerged pontoons on a floating fish farm located off Changi, Singapore. Adult animals were maintained in the open-circulation aquarium at St John's island marine laboratory, Singapore. The adults were kept in total darkness for 24 hours. On exposure to light, larvae were released after half an hour. […] Because the larvae will settle quickly, larvae were pipetted directly into test wells in 1 ml of seawater using a graduated glass pipette.
4 replicates were done for each treatment. After 24 hours, larvae were scored as settled, swimming or dead/deformed. The assay plates were usually kept for another 24 hours and checked again, to ascertain that the settled larvae had developed into viable colonies with lophophores. Two trials were repeated for each compound. […]

[1] = test system: marine bacteria (26 strains); assay: Disk inhibition assay; assay type: cell-based, marine bacteria isolated from Singapore fouling communities; conditions: commercial antibiotic discs; in words
Procedure: Preparation of Drugs onto Disks for Assay
The non-antibiotic pharmaceuticals of Table 1 were prepared in the following way. A tablet with a known amount of active ingredient (as stated in the product information) was ground in a mortar and pestle and suspended in sterile deionized water to a concentration of 2 mg ml^−1. These samples were sonicated for at least 1 min. […] The two halves of the capsule were separated and the powder released straight into a bottle and suitable amount of water added to make a concentration of 2 mg ml^−1.
As a comparison to the pharmaceuticals, to determine the susceptibility of the bacterial isolates to conventional antibiotics, commercially available antibiotic discs were used. Antibiotic discs (Oxoid® CT series) containing Ampicillin [Amp] (2 and 10 μg), Erythromycin [Ery] (5 and 15 μg), Streptomycin [Str] (10 and 25 μg) and Tetracycline [Tet] (5 and 30 μg) were placed on lawns of the bacterial strains inoculated as described below.
Sterile swabs dipped into the cultures were used to inoculate Marine Agar plates with a bacterial lawn by smearing the culture over the surface. After inoculating the plates, discs with antibiotics, pharmaceuticals or control blanks were placed on each plate. […] The diameter of any zone of clearing or inhibition was measured using Vernier calipers. […]

| Compound | Estimated ED50 (Bugula neritina larvae) [µg/mL] | Effectiveness of antibiotics against strains of marine bacteria [1] |
| --- | --- | --- |
| CNCCC(Oc1ccc(C(F)(F)F)cc1)c1ccccc1 (stereo not drawn) [PZC, fluoxetine hydrochloride] | 0.2 to 1 | – |
| CN(C)[C@@H]1C(O)=C(C(N)=O)C(=O)[C@@]2(O)C(O)=C3C(=O)c4c(O)cccc4[C@@](C)(O)[C@H]3C[C@@H]12 [Tet, tetracycline] | – | very effective against strain 12 at 30 μg but otherwise was the least effective against most strains of marine bacteria |
| Cc1nccn1CC1CCc2c(c3ccccc3n2C)C1=O (stereo not drawn) [ZFN, ondansetron hydrochloride] | 1 to 5 | – |
